In the supplement of paper PMC8728848:
This is one part of the list.

Assays:
Experiment in all cases: glycan array binding signal (z-score within array); higher = stronger binding
Details in all cases: glycan notation: IUPAC condensed, linker removed
[1] = target: Neu5Ac(a2-3)Gal(b1-3)GlcNAc(b1-6)GalNAc
Outline: (§1)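 The binding signal is a Z-score computed within each array. Data were drawn from 3228 arrays in the Consortium for Functional Glycomics database, restricted to those with a known protein sequence. Scores were averaged over arrays of the same protein sequence at different concentrations or buffers, and over linkers, and negative values can be taken as non-binding.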

[2] = target: Neu5Ac(a2-3)Gal(b1-3)GlcNAc6S
Outline: as §1

[3] = target: Neu5Ac(a2-3)Gal(b1-3)[Fuc(a1-4)]GlcNAc
Outline: as §1

[4] = target: Neu5Ac(a2-3)Gal(b1-3)[Fuc(a1-4)]GlcNAc(b1-3)Gal(b1-3)[Fuc(a1-4)]GlcNAc
Outline: as §1

[5] = target: Neu5Ac(a2-3)Gal(b1-3)[Fuc(a1-4)]GlcNAc(b1-3)Gal(b1-4)[Fuc(a1-3)]GlcNAc
Outline: as §1

[6] = target: Neu5Ac(a2-3)Gal(b1-3)[GlcNAc(b1-6)]GalNAc
Outline: as §1

[7] = target: Neu5Ac(a2-3)Gal(b1-3)[Neu5Ac(a2-6)]GalNAc
Outline: as §1

[8] = target: Neu5Ac(a2-3)Gal(b1-3)[Neu5Ac(a2-6)]GlcNAc(b1-3)[Fuc(a1-3)[Gal(b1-4)]GlcNAc(b1-6)]Gal(b1-4)Glc
Outline: as §1

[9] = target: Neu5Ac(a2-3)Gal(b1-3)]Neu5Ac(a2-3)Gal(b1-4)]GlcNAc
Outline: as §1

Neu5Ac(a2-3)Gal(b1-4)Glc = target: Neu5Ac(a2-3)Gal(b1-4)Glc
Outline: as §1

[10] = target: Neu5Ac(a2-3)Gal(b1-4)GlcNAc
Outline: as §1

[11] = target: Neu5Ac(a2-3)Gal(b1-4)GlcNAc(b1-2)Man
Outline: as §1

[12] = target: Neu5Ac(a2-3)Gal(b1-4)GlcNAc(b1-2)Man(a1-3)[GlcNAc(b1-4)][Neu5Ac(a2-3)Gal(b1-4)GlcNAc(b1-2)Man(a1-6)]Man(b1-4)GlcNAc(b1-4)GlcNAc
Outline: as §1

[13] = target: Neu5Ac(a2-3)Gal(b1-4)GlcNAc(b1-2)Man(a1-3)[Neu5Ac(a2-3)Gal(b1-4)GlcNAc(b1-2)Man(a1-6)]Man(b1-4)GlcNAc(b1-4)GlcNAc
Outline: as §1

[14] = target: Neu5Ac(a2-3)Gal(b1-4)GlcNAc(b1-2)Man(a1-3)[Neu5Ac(a2-3)Gal(b1-4)GlcNAc(b1-2)Man(a1-6)]Man(b1-4)GlcNAc(b1-4)[Fuc(a1-6)]GlcNAc
Outline: as §1

[15] = target: Neu5Ac(a2-3)Gal(b1-4)GlcNAc(b1-2)Man(a1-3)[Neu5Ac(a2-6)Gal(b1-4)GlcNAc(b1-2)Man(a1-6)]Man(b1-4)GlcNAc(b1-4)GlcNAc
Outline: as §1

[16] = target: Neu5Ac(a2-3)Gal(b1-4)GlcNAc(b1-2)[Neu5Ac(a2-3)Gal(b1-4)GlcNAc(b1-4)]Man(a1-3)[GlcNAc(b1-4)][Neu5Ac(a2-3)Gal(b1-4)GlcNAc(b1-2)[Neu5Ac(a2-3)Gal(b1-4)GlcNAc(b1-6)]Man(a1-6)]Man(b1-4)GlcNAc(b1-4)GlcNAc
Outline: as §1

[17] = target: Neu5Ac(a2-3)Gal(b1-4)GlcNAc(b1-2)[Neu5Ac(a2-3)Gal(b1-4)GlcNAc(b1-4)]Man(a1-3)[GlcNAc(b1-4)][Neu5Ac(a2-3)Gal(b1-4)GlcNAc(b1-4)Man(a1-6)]Man(b1-4)GlcNAc(b1-4)GlcNAc
Outline: as §1

[18] = target: Neu5Ac(a2-3)Gal(b1-4)GlcNAc(b1-2)[Neu5Ac(a2-3)Gal(b1-4)GlcNAc(b1-6)]Man(a1-6)[Neu5Ac(a2-3)Gal(b1-4)GlcNAc(b1-2)Man(a1-3)][GlcNAc(b1-4)]Man(b1-4)GlcNAc(b1-4)GlcNAc
Outline: as §1

[19] = target: Neu5Ac(a2-3)Gal(b1-4)GlcNAc(b1-3)Gal
Outline: as §1

[20] = target: Neu5Ac(a2-3)Gal(b1-4)GlcNAc(b1-3)Gal(b1-3)GlcNAc
Outline: as §1

[21] = target: Neu5Ac(a2-3)Gal(b1-4)GlcNAc(b1-3)Gal(b1-4)GlcNAc
Outline: as §1

[22] = target: Neu5Ac(a2-3)Gal(b1-4)GlcNAc(b1-3)Gal(b1-4)GlcNAc(b1-2)Man(a1-3)[Neu5Ac(a2-3)Gal(b1-4)GlcNAc(b1-3)Gal(b1-4)GlcNAc(b1-2)Man(a1-6)]Man(b1-4)GlcNAc(b1-4)GlcNAc
Outline: as §1

[23] = target: Neu5Ac(a2-3)Gal(b1-4)GlcNAc(b1-3)Gal(b1-4)GlcNAc(b1-3)Gal(b1-4)GlcNAc
Outline: as §1

[24] = target: Neu5Ac(a2-3)Gal(b1-4)GlcNAc(b1-3)Gal(b1-4)GlcNAc(b1-3)Gal(b1-4)GlcNAc(b1-2)Man(a1-3)[Neu5Ac(a2-3)Gal(b1-4)GlcNAc(b1-3)Gal(b1-4)GlcNAc(b1-3)Gal(b1-4)GlcNAc(b1-2)Man(a1-6)]GalNAc
Outline: as §1

[25] = target: Neu5Ac(a2-3)Gal(b1-4)GlcNAc(b1-3)Gal(b1-4)GlcNAc(b1-3)GalNAc
Outline: as §1

[26] = target: Neu5Ac(a2-3)Gal(b1-4)GlcNAc(b1-3)Gal(b1-4)GlcNAc(b1-3)[Neu5Ac(a2-3)Gal(b1-4)GlcNAc(b1-3)Gal(b1-4)GlcNAc(b1-6)]GalNAc
Outline: as §1

[27] = target: Neu5Ac(a2-3)Gal(b1-4)GlcNAc(b1-3)Gal(b1-4)GlcNAc(b1-6)[Gal(b1-3)]GalNAc
Outline: as §1

[28] = target: Neu5Ac(a2-3)Gal(b1-4)GlcNAc(b1-3)Gal(b1-4)[Fuc(a1-3)]GlcNAc
Outline: as §1

[29] = target: Neu5Ac(a2-3)Gal(b1-4)GlcNAc(b1-3)GalNAc
Outline: as §1

B1: SHCBP1-GST (Homo sapiens), Q8NEM2 (protein)
chain: MADGSLTGGGLEAAAMAPERMGWAVEQELASLEKGLFQDEDSCSDCSYRDKPGSSLQSFMPEGKTFFPEIFQTNQLLFYERFRAYQDYILADCKASEVQEFTAEFLEKVLEPSGWRAVWHTNVFKVLVEITDVDFAALKAVVRLAEPYLCDSQVSTFTMECMKELLDLKEHRLPLQELWVVFDDSGVFDQTALAIEHVRFFYQNIWRSWDEEEEDEYDYFVRCVEPRLRLHYDILEDRVPSGLIVDYHNLLSQCEESYRKFLNLRSSLSNCNSDSEQENISMVEGLKLYSEMEQLKQKLKLIENPLLRYVFGYQKNSNIQAKGVRSSGQKITHVVSSTMMAGLLRSLLTDRLCQEPGEEEREIQFHSDPLSAINACFEGDTVIVCPGHYVVHGTFSIADSIELEGYGLPDDIVIEKRGKGDTFVDCTGADIKISGIKFVQHDAVEGILIVHRGKTTLENCVLQCETTGVTVRTSAEFLMKNSDLYGAKGAGIEIYPGSQCTLSDNGIHHCKEGILIKDFLDEHYDIPKISMVNNIIHNNEGYGVVLVKPTIFSDLQENAEDGTEENKALKIQTSGEPDVAERVDLEELIECATGKMELCARTDPSEQVEGNCEIVNELIAASTQKGQIKKKRLSELGITQADDNLMSQEMFVGIVGNQFKWNGKGSFGTFLF
- glycan array binding signal (z-score) [1]: 0.684
- glycan array binding signal (z-score) [2]: -0.441
- glycan array binding signal (z-score) [3]: -0.231
- glycan array binding signal (z-score) [4]: -0.62
- glycan array binding signal (z-score) [5]: -0.008
- glycan array binding signal (z-score) [6]: -0.95
- glycan array binding signal (z-score) [7]: 0.186
- glycan array binding signal (z-score) [8]: 0.123
- glycan array binding signal (z-score) [9]: -0.285
- glycan array binding signal (z-score) (Neu5Ac(a2-3)Gal(b1-4)Glc): -0.288
- glycan array binding signal (z-score) [10]: -0.2
- glycan array binding signal (z-score) [11]: 1.96
- glycan array binding signal (z-score) [12]: 1.37
- glycan array binding signal (z-score) [13]: -0.159
- glycan array binding signal (z-score) [14]: 0.338
- glycan array binding signal (z-score) [15]: 0.025
- glycan array binding signal (z-score) [16]: -0.705
- glycan array binding signal (z-score) [17]: 0.188
- glycan array binding signal (z-score) [18]: 0.412
- glycan array binding signal (z-score) [19]: -0.807
- glycan array binding signal (z-score) [20]: -1.03
- glycan array binding signal (z-score) [21]: 0.853
- glycan array binding signal (z-score) [22]: 0.273
- glycan array binding signal (z-score) [23]: -0.042
- glycan array binding signal (z-score) [24]: 1.68
- glycan array binding signal (z-score) [25]: -0.015
- glycan array binding signal (z-score) [26]: -0.513
- glycan array binding signal (z-score) [27]: -0.09
- glycan array binding signal (z-score) [28]: -0.503
- glycan array binding signal (z-score) [29]: 0.123
